In PubChem BioAssay (Tox21):
“And” between values parts separate entries of the source, which are not always exact repeats. Identical values can stand only once. Inconclusive results, whose numbers are uncertain, are shown with a selection of clear calls. A potency beside an inconclusive call is a rough fit, not a confirmed value. The source made the active and inactive calls. Calls follow the shape of the full dose curve.

These compounds were tested against Beta-2 adrenergic receptor (Homo sapiens) (UniProt P07550) (assay: Adrenergic beta2 receptor (ADRB2) small molecule agonists, cell-based qHTS assay (AID 1963593;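 as to activation: CHO cells stably overexpressing human ADRB2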)). Conditions: CHO-ADRB2 cells, cAMP HTRF, 30 min; activation: at 92.4 µM (top of the series) unless noted.
Method in brief: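 CHO cells stably over-expressing ADRB2 were plated overnight at 37C, then dosed with compounds plus a stimulation mix containing 100uM IBMX and 25uM Ro-20-1724 for 0.5hr at room temperature. cAMP was measured by HTRF competition, 1hr.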
% is scaled to controls: 0 for no effect and ±100 for the full control effect; potency is read from the fitted curve at half-maximal effect.

Compound	activation	Potency
CC(O)(P(=O)(O)O)P(=O)(O)O	inconclusive: 8.3% and inconclusive: -4.97%	–
CC(=O)c1cccnc1	inconclusive: 1.88%	–
CC(O)CCCCn1c(=O)c2c(ncn2C)n(C)c1=O (centres undefined)	–	inactive
CC1=CC[C@H]2C[C@@H]1C2(C)C	–	inconclusive: 97.8 nM [activator, full curve, poor fit] and inactive
COc1cc(S(N)(=O)=O)cc(C(=O)O)c1OC	inconclusive: 2.16% [at 42.5 µM]	–
OCC(CO)(CO)COCC(CO)(CO)CO	inconclusive: -1.22%	–
CC[N+](CC)(CC)Cc1ccccc1	inconclusive: 6.96%	–
Brc1ccc(Br)c(Br)c1	inconclusive: 41.8% and inconclusive: -10.4%	–
Cc1nc(-c2ccc3c(c2)CCN(CCC2CCC(NC(=O)/C=C/c4ccc(F)cc4)CC2)CC3)no1 (centres undefined)	–	inactive
CCCCCCC#CC(=O)OC	inconclusive: -0.92%	–
C1CCCNCCC1	–	inconclusive: 0.061 µM [inhibitor, partial curve, poor fit]
COc1cc(Cl)ccc1Cl	inconclusive: 39.2%	–
CCCCCCCC/C=C\CCCCCCCC(N)=O	–	inactive
CCC(C)=O	–	inactive
CCCCCCCCCCCCCC(=O)O	–	inconclusive: 15.4 µM [inhibitor, single point]
CO[Si](CCCNc1ccccc1)(OC)OC	inconclusive: 2.36%	–
CC(CO)(CO)C(=O)O	inconclusive: 4.49%	–
COC(=O)Cc1cccc2ccccc12	–	inactive
Cc1nc2ccc(CN(C)c3ccc(C(=O)N[C@@H](CCC(=O)O)C(=O)O)s3)cc2c(=O)[nH]1	inconclusive: 8.03% [at 42.5 µM]	–
CCCc1ccccc1	–	inactive

Compound	activation	Potency
Cc1ccccc1	–	inconclusive: 15 µM [inhibitor, partial curve, poor fit]
CC(C)c1ccc2cc(C(C)C)ccc2c1	–	inactive
C=C(C)C(=O)OCCNC(C)(C)C	–	inactive
CCCCN1C[C@H](O)[C@@H](O)[C@H](O)[C@H]1CO	–	inactive
NCC[C@H](O)C(=O)N[C@@H]1C[C@H](N)[C@@H](O[C@H]2O[C@H](CN)[C@@H](O)[C@H](O)[C@H]2O)[C@H](O)[C@H]1O[C@H]1O[C@H](CO)[C@@H](O)[C@H](N)[C@H]1O	inactive: 21.1% [at 0.349 µM]	–
C[C@@H](O)[C@H]1C(=O)N2C(C(=O)O)=C(SCCN=CN)C[C@H]12	–	inactive
CC(=O)c1ccc(C(C)=O)cc1	inconclusive: -11.1%	–
CCCC(=O)C(=O)O	–	inconclusive: 6.86 µM [inhibitor, partial curve, poor fit]
CCCCCCCCCCCCCCN(C)C	inconclusive: 0.923% [at 19 µM]	–
COc1cccc(N)c1	inconclusive: -34.3%	–
Nc1ccc(/C=C/c2ccc(N)cc2S(=O)(=O)O)c(S(=O)(=O)O)c1	inactive: -7.68% [at 0.349 µM]	–
CCCCC(CC)COC(=O)c1ccc(C(=O)OCC(CC)CCCC)cc1 (centres undefined)	–	inactive
O=C(O)c1ccncc1	inconclusive: 6.54%	–
ClC1=C(Cl)C1(Cl)Cl	inconclusive: -3.53%	–
C=C(C)C(=O)OCCC(F)(F)C(F)(F)C(F)(F)C(F)(F)C(F)(F)C(F)(F)F	–	inactive
c1ccc(CNc2ncnc3c2ncn3C2CCCCO2)cc1 (centres undefined)	inconclusive: 13.4%	–
Nc1c(NC/C=C\COc2cc(CN3CCCCC3)ccn2)c(=O)c1=O	inactive: -3.93% [at 19 µM]	–
COc1nc(C)nc(Cl)c1NC1=NCCN1	–	inactive
COc1ccc2c(c1)c1c3n2CCN(C)C3=NCC1	–	inconclusive: 3.35 µM [inhibitor, full curve, poor fit]
